This note sets out measurements from patent publication US20030138800.

This data set relates to N.BstNBI nicking endonuclease. As to the kind of experiment: enzyme reaction in vitro. The settings on record: purified recombinant protein, protein details: NEB.

Construct, isoform or probe ends are uncertain for at least one entry.

As for “CCTACGACTGGAACAGACTCACCTACGACTGGA (double strand) [Example 3 immobilized T2 duplex]”, the “activity on this sequence” value (5'-amino (hexyl-amine, immobilized on PEI-coated tip), immobilized template, product m/z 1246 detected) is recorded as “active”.
For “TTCCAGTCGTAGGTGAGTCGATGTTCCAGTCGTAGGT (double strand) [H2 duplex (Example 1, A2-extended T2)]”, the “activity on this sequence” value (nicked product A2 detected by mass spectrometry, no product without TOP1, 60 C) is “active”.
